Assay results taken from PubChem BioAssay AID504444 (National Center for Advancing Translational Sciences (NCATS), 2011).
Screen size: about 360,000 compounds; about 7,500 (2.1%) were called active. The inconclusive results got no clear call from the source; some entries with a clear call stand among them for comparison. The call rests on the fitted dose curve; in most records, active means well fitted inhibition curve with a large enough effect; inconclusive means small, poorly fitted or top-dose-only effect, or effect the other way; inactive means flat fitted curve, though single readings scatter. Where the call is inconclusive, the potency comes from a doubtful curve fit.

experiment: Nrf2 qHTS screen for inhibitors; conditions: A549 ARE-Fluc reporter, luciferase luminescence, 18-24 h; series mostly up to 46 µM; further: nearly all actives have a fitted effect of over 60% in size
How it was run: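 Concentration-response testing used A549 ARE_Fluc cells at 5000 cells/well. Following an 18-24 h compound incubation, viability was read by fluorescence (Ex 405/Em 525) and luciferase output by luminescence.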
Potency means the concentration at half of the fitted maximal effect.

Row | Compound | Potency
1 | CC(=Nc1ccc(O)cc1)c1sc2ccccc2c1O | inconclusive: 3.26 µM [activator, partial curve]
2 | CC(NC(=O)CN(C)Cc1ccc(Br)cc1)c1ccccc1 (stereo unspecified) | inconclusive: 23.1 µM [falling, partial curve, poor fit]
3 | CC(C)(C)OC(=O)NCCCCCNC(=O)c1[nH]cnc1C(=O)Nc1ccon1 | inconclusive: 29.1 µM [falling, single point]
4 | CCc1ccc(CCC(=O)Nc2ccccc2C(=O)O)o1 | inconclusive: 11.6 µM [activator, partial curve]
5 | CCOc1cccc(/C=C(/C#N)c2nc3ccccc3[nH]2)c1OCC(=O)O | inactive
6 | Brc1cccc(-c2nnc(SCc3nc4ccccc4[nH]3)o2)c1 | inconclusive: 16.4 µM [falling, single point]
7 | Cc1ccc(C)c(C(=O)OCC(=O)Nc2cccc(S(=O)(=O)N3CCCCC3)c2)c1 | inconclusive: 13 µM [falling, partial curve]
8 | CCC(=O)Nc1sc(C(=O)OC)c(C)c1C(=O)OC | inconclusive: 18.4 µM [falling, partial curve, poor fit]
9 | O=C(CNC(=O)c1ccc2n[nH]nc2c1)OC(C(=O)Nc1cc(C(F)(F)F)ccc1Cl)c1ccccc1 (stereo unspecified) | inactive
10 | O=C(NCCc1csc(-c2cccc(F)c2)n1)c1ccco1 | inconclusive: 9.2 µM [falling, partial curve, poor fit]
11 | CCOc1ccc(N(CC)S(=O)(=O)N2CCCC(C(=O)NCc3ccccc3OCC)C2)cc1 (stereo unspecified) | inconclusive: 18.4 µM [falling, single point]
12 | Cc1ccc(S(=O)(=O)N2[C@@H](c3ccc(Cl)c(Cl)c3)C(C(=O)O)=C[C@H]2C(C)(C)C)cc1 | inconclusive: 16.4 µM [falling, partial curve]
13 | O=C(N/N=C/c1cc([N+](=O)[O-])ccc1O)c1cccc(N2CCCC2=O)c1 | inconclusive: 16.4 µM [falling, single point]
14 | COc1cc(C(=O)N(CCCN(C)C)c2nc3c(OC)cccc3s2)cc(OC)c1OC | inconclusive: 7.31 µM [activator, partial curve, poor fit]
15 | O=S(=O)(NCCc1ccccc1F)c1cccc(S(=O)(=O)N2CCOCC2)c1 | inconclusive: 29.1 µM [falling, partial curve, poor fit]
16 | CC(C)c1ccc(/C=N/NC(=O)c2ccccc2Cl)cc1 | inconclusive: 4.61 µM [activator, partial curve, poor fit]
17 | C#CCN(N(C)c1ncc(C(F)(F)F)cc1Cl)S(=O)(=O)c1ccc2ccccc2c1 | inconclusive: 10.3 µM [falling, partial curve, poor fit]
18 | COc1ccc(CC(CC(=O)O)C(=O)NCc2ccccc2)cc1 (stereo unspecified) | inconclusive: 16.4 µM [falling, single point]
19 | CCC(=O)N/N=C(\C)CC(=O)Nc1ccc(F)cc1 | inconclusive: 6.51 µM [activator, single point]
20 | COc1cccc(Nc2ccc(N3CCCCC3)cc2)c1OC | inconclusive: 25.9 µM [activator, single point]
21 | COc1ccc(C(NC(C)=O)c2cc(Cl)c3cccnc3c2O)cc1 (stereo unspecified) | inconclusive: 29.1 µM [falling, single point]

Row | Compound | Potency
22 | COc1cc2c(cc1OC)C(c1ccc(-c3ccc(Cl)c(Cl)c3)o1)=NCC2 | active: 9.2 µM
23 | O=C(CN1C(=O)NC2(CCCC2)C1=O)Nc1cc(S(=O)(=O)N2CCCCC2)ccc1Cl | inconclusive: 29.1 µM [falling, single point]
24 | C=C1C[C@H]2[C@@H]3C=C(C)C4=CC(=O)CC[C@]4(C)[C@H]3CC[C@]2(C)[C@@]1(OC(C)=O)C(C)=O | inconclusive: 0.0366 µM [falling, full curve]
25 | Nc1scc2c(C(=O)N/N=C/c3ccc(Cl)cc3)nn(-c3ccccc3)c(=O)c12 | inconclusive: 6.51 µM [falling, single point]
26 | COc1ccc2c(c1)nc(SCC(O)c1ccccc1)n2C (stereo unspecified) | inconclusive: 29.1 µM [activator, single point]
27 | Cn1c(=O)n(C)c2cc(NS(=O)(=O)c3ccc(Cl)cc3)c(NCc3ccccc3)cc21 | inconclusive: 25.9 µM [falling, single point]
28 | CCC(c1nnc(SCc2nc3ccccc3s2)n1Cc1ccccc1)N(C)C (stereo unspecified) | inconclusive: 10.3 µM [activator, partial curve, poor fit]
29 | COc1cc(CNCCCSc2nnnn2C)cc(Br)c1OC | inactive
30 | CC(C)(C)c1ccc(Cn2nnc3c(=O)[nH]c(C4CCN(C(=O)c5ccco5)CC4)nc32)cc1 | active: 25.9 µM
31 | O=C(Nc1ccccc1Cl)c1cccc(COc2cc(Cl)ccc2Cl)c1 | inconclusive: 3.26 µM [activator, full curve]
32 | O=C(Nc1cccc(F)c1)C1CCN(c2nc3ccccc3nc2C(F)(F)F)CC1 | inconclusive: 18.4 µM [falling, single point]
33 | CCc1ccccc1-n1nnc(-c2nc(-c3ccccc3F)no2)c1C | inconclusive: 2.91 µM [activator, partial curve, poor fit]
34 | Cc1c(C)c2c(OCC(=O)NCC(C)C)cc3c(c2oc1=O)CCC(C)(C)O3 | inconclusive: 23.1 µM [falling, single point]
35 | COc1ccc(OC)c(NC(=O)CCCOc2cc(=O)n(C)c3ccccc23)c1 | inconclusive: 16.4 µM [falling, partial curve, poor fit]
36 | COc1ccc(C2c3ccc(O)cc3Oc3ncn4nc(-c5ccncc5)nc4c32)cc1OC (stereo unspecified) | inconclusive: 29.1 µM [activator, single point]
37 | COc1ccc(OC)c(Nc2nc(-c3sc(NC(=O)C(C)(C)C)nc3C)cs2)c1 | active: 8.2 µM
38 | O=C(NNC1=NS(=O)(=O)c2ccccc21)c1ccccc1Cl | inconclusive: 8.2 µM [activator, partial curve, poor fit]
39 | CCOc1cc(C(=O)Nc2cccc3ncccc23)cc(OCC)c1OCC | inconclusive: 9.2 µM [falling, partial curve, poor fit]
40 | CCc1ccc(NC(=O)Nc2ccsc2C(=O)OC)cc1 | inconclusive: 2.59 µM [activator, partial curve, poor fit]
41 | Cc1c(NC(=O)CSc2ncnc3ccccc23)c(=O)n(-c2ccccc2)n1C | inconclusive: 13 µM [falling, partial curve, poor fit]
42 | CCCn1c(NC(=O)c2ccc([N+](=O)[O-])o2)nc2ccccc21 | inactive

Arranged by molar mass (rising): some entries from above
Row | Compound | Potency
40 | CCc1ccc(NC(=O)Nc2ccsc2C(=O)OC)cc1 | inconclusive: 2.59 µM [activator, partial curve, poor fit]
26 | COc1ccc2c(c1)nc(SCC(O)c1ccccc1)n2C (stereo unspecified) | inconclusive: 29.1 µM [activator, single point]
5 | CCOc1cccc(/C=C(/C#N)c2nc3ccccc3[nH]2)c1OCC(=O)O | inactive

The list continues.

Row | Compound | Potency
43 | CCOC(=O)C1=C(CN2CCN(c3ccc(Cl)cc3)CC2)NC(=O)NC1c1ccc(F)cc1 (stereo unspecified) | inconclusive: 18.4 µM [falling, single point]
44 | Cc1cc(OC(=O)N2CCOCC2)cc(C)c1Cl | inactive
45 | Cn1c(=NC(=O)c2ccccc2[N+](=O)[O-])sc2cc(S(C)(=O)=O)ccc21 | inconclusive: 0.366 µM [activator, full curve, poor fit]
46 | Cc1ccc(OCC(O)Cn2c3ccccc3c3ccccc32)cc1 (stereo unspecified) | inconclusive: 16.4 µM [falling, partial curve, poor fit]
47 | CC(C)(C)c1ccc(S(=O)(=O)NCC(=O)Nc2ccc(-c3nc4ccccc4s3)cc2)cc1 | inconclusive: 3.66 µM [activator, single point]
48 | O=[N+]([O-])c1ccc(NN=Cc2ccccc2O)nc1 | inconclusive: 29.1 µM [falling, single point]
49 | CCOc1ccc(NC(=O)C(C)SC(N)=O)cc1 (stereo unspecified) | inactive
50 | COc1ccc(NC(=O)CN(C)C(=O)c2ccccc2OC)cc1 | inconclusive: 5.8 µM [activator, single point]
51 | O=C(N=Nc1c(O)[nH]c2ccccc12)c1cc(-c2cccs2)[nH]n1 | inconclusive: 13 µM [activator, partial curve]
52 | COc1ccc(-c2nnc(SCC(=O)c3cccs3)n2-c2ccc(Cl)cc2)cc1 | inconclusive: 18.4 µM [falling, partial curve]
53 | CNC(=O)C1CCC(Cn2c(=O)c3sccc3n(CC(=O)Nc3ccc(C)cc3C)c2=O)CC1 (stereo unspecified) | inconclusive: 10.3 µM [activator, partial curve, poor fit]
54 | COc1cc2c(cc1OC)C(C)N(C(=O)c1cccc([N+](=O)[O-])c1)CC2 (stereo unspecified) | inconclusive: 16.4 µM [falling, partial curve, poor fit]
55 | Cc1cc(C)nc(NC(=NCCc2c[nH]c3ccccc23)NC(=O)Nc2ccc(Cl)c(Cl)c2)n1 | inconclusive: 18.4 µM [falling, single point]
56 | Cc1oc(-c2ccc(Cl)cc2)nc1CN1CCCC(C(=O)NCc2cccnc2)C1 (stereo unspecified) | inconclusive: 1.84 µM [falling, partial curve]
57 | Cc1ccsc1-c1ccnc(-n2cccc2)n1 | inconclusive: 16.4 µM [activator, partial curve, poor fit]
58 | Cc1ccc2nc(-c3ccc(N4CCOCC4)cc3)c(Nc3ccccc3C)n2c1 | inconclusive: 29.1 µM [falling, single point]
59 | CC(C)Cc1ccc(CN2CCCC(NC(=O)CCn3cnnn3)C2)cc1 (stereo unspecified) | inconclusive: 13 µM [falling, partial curve]
60 | O=C(CN1C(=O)COc2ccc(S(=O)(=O)NC3CCCC3)cc21)Nc1ccc(F)c(Cl)c1 | inconclusive: 8.2 µM [falling, partial curve, poor fit]
61 | CC(=O)[C@@H]1[C@@H](C(=O)c2ccc(C)cc2)[C@]2(C(=O)Nc3ccccc32)[C@H]2C=Cc3cc(F)ccc3N12 | inconclusive: 29.1 µM [falling, single point]

Shown tab-delimited: entries from further up.
Row	Compound	Potency
48	O=[N+]([O-])c1ccc(NN=Cc2ccccc2O)nc1	inconclusive: 29.1 µM [falling, single point]
51	O=C(N=Nc1c(O)[nH]c2ccccc12)c1cc(-c2cccs2)[nH]n1	inconclusive: 13 µM [activator, partial curve]
59	CC(C)Cc1ccc(CN2CCCC(NC(=O)CCn3cnnn3)C2)cc1 (stereo unspecified)	inconclusive: 13 µM [falling, partial curve]
